Measurements published in the supplement of paper PMC4604168 (melanoma cell lines).
The list shows a part of the results. Single values are uncertain, as repeats are few or missing.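 Cells were imaged in 1,536-well plates, and nuclei stained with an antibody against cleaved PARP were counted against all DNA-stained nuclei to give the apoptosis fraction. Screening doses were chosen to leave most cells alive, and resting and induced cleaved-PARP levels differ strongly between cell lines.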

How the values were obtained:
Experiment in all cases: cleaved PARP positive nuclei fraction relative to DMSO control; melanoma cells; higher = more apoptosis
Settings in all cases: library dose: low library concentration; 72 h
MZ2-MEL = tested on: MZ2-MEL
MeWo = tested on: MeWo
RPMI7951 = tested on: RPMI7951
RVH-421 = tested on: RVH-421
SkMel28 = tested on: SkMel28
SkMel2 = tested on: SkMel2
SkMel30 = tested on: SkMel30
SkMel5 = tested on: SkMel5
UACC257 = tested on: UACC257
UACC62 = tested on: UACC62

Compound	cleaved PARP positive nuclei fraction (MZ2-MEL) [%]	cleaved PARP positive nuclei fraction (MeWo) [%]	cleaved PARP positive nuclei fraction (RPMI7951) [%]	cleaved PARP positive nuclei fraction (RVH-421) [%]	cleaved PARP positive nuclei fraction (SkMel28) [%]	cleaved PARP positive nuclei fraction (SkMel2) [%]	cleaved PARP positive nuclei fraction (SkMel30) [%]	cleaved PARP positive nuclei fraction (SkMel5) [%]	cleaved PARP positive nuclei fraction (UACC257) [%]	cleaved PARP positive nuclei fraction (UACC62) [%]
COc1ccc(C2=N[C@@H](c3ccc(Cl)cc3)[C@@H](c3ccc(Cl)cc3)N2C(=O)N2CCNC(=O)C2)c(OC(C)C)c1 [Nutlin-3] + O=C1NC(=O)/C(=C/c2ccc(-c3ccc(F)cc3O)o2)S1 [AS252424] (first compound 0.1 µM, partner dose 1 µM)	31.3	157	178	135	193	266	42.8	157	116	120
C[C@]1(O)C[C@@H](c2nc(-c3ccc4ccc(-c5ccccc5)nc4c3)c3c(N)nccn32)C1 + CN(C)S(=O)(=O)c1ccc2c(c1)/C(=C/c1cc3c([nH]1)CCCC3)C(=O)N2 [SU6656] (first compound 0.4 µM, partner dose 0.4 µM)	226	168	118	201	47.4	33.9	99.8	123	90.2	156
Cn1sc(=O)n(Cc2ccccc2)c1=O + c1cc(-c2cnn3cc(-c4ccc(OCCN5CCCCC5)cc4)cnc23)ccn1 [Dorsomorphin] (first compound 0.4 µM, partner dose 0.4 µM)	60	38.8	43.9	112	283	38.9	61.8	73.5	62.1	116
CS(=O)(=O)c1ccc(C(=O)Nc2ccc(Cl)c(-c3ccccn3)c2)c(Cl)c1 [vismodegib] + COc1ccc(-c2ccc3c(N4CCOCC4)nc(N4C[C@@H](C)O[C@@H](C)C4)nc3n2)cc1CO [KU0063794] (first compound 1 µM, partner dose 0.02 µM)	67.8	239	42.7	248	110	111	56.7	75.8	131	114
Cn1sc(=O)n(Cc2ccccc2)c1=O + COc1ccc(-c2ccc3c(N4CCOCC4)nc(N4C[C@@H](C)O[C@@H](C)C4)nc3n2)cc1CO [KU0063794] (first compound 0.4 µM, partner dose 0.02 µM)	176	166	133	100	87.7	45	95.9	66	320	31
CC1(C)CCC(c2ccc(Cl)cc2)=C(CN2CCN(c3ccc(C(=O)NS(=O)(=O)c4ccc(N[C@H](CCN5CCOCC5)CSc5ccccc5)c(S(=O)(=O)C(F)(F)F)c4)cc3)CC2)C1 + c1cc(-c2cnn3cc(-c4ccc(OCCN5CCCCC5)cc4)cnc23)ccn1 [Dorsomorphin] (first compound 0.4 µM, partner dose 0.4 µM)	231	221	76.2	92.7	128	54.9	36.7	268	158	152
CS(=O)(=O)c1ccc(C(=O)Nc2ccc(Cl)c(-c3ccccn3)c2)c(Cl)c1 [vismodegib] + Oc1cc(-c2nc(-c3ccccc3)[nH]c2-c2ccncc2)ccc1Cl [L779450] (first compound 1 µM, partner dose 0.2 µM)	38.2	88.2	74.1	93.4	136	95.8	18.1	81.7	99.6	145
Cn1sc(=O)n(Cc2ccccc2)c1=O + N#Cc1c(O)c2c(-c3ccc(-c4ccccc4O)cc3)csc2[nH]c1=O [A769662] (first compound 0.4 µM, partner dose 2 µM)	142	82.4	128	76.8	94	167	52.1	155	326	137
C[C@]1(O)C[C@@H](c2nc(-c3ccc4ccc(-c5ccccc5)nc4c3)c3c(N)nccn32)C1 + O=C1NC(=O)/C(=C/c2ccc(-c3ccc(F)cc3O)o2)S1 [AS252424] (first compound 0.4 µM, partner dose 1 µM)	255	54.8	124	110	117	142	88.5	66.8	220	77.7
NC(=O)c1ccc(N(C(N)=O)c2c(F)cccc2F)nc1-c1ccc(F)cc1F + COc1ccc(-c2ccc3c(N4CCOCC4)nc(N4C[C@@H](C)O[C@@H](C)C4)nc3n2)cc1CO [KU0063794] (first compound 0.4 µM, partner dose 0.02 µM)	119	48.2	76.8	83.4	136	49.2	168	77.8	113	57.9
CN(c1ncccc1CNc1nc(Nc2ccc3c(c2)CC(=O)N3)ncc1C(F)(F)F)S(C)(=O)=O + O=C(CCCCCCC(=O)Nc1ccccc1)NO [vorinostat] (first compound 0.08 µM, partner dose 0.08 µM)	126	112	85	134	49.7	134	167	46.9	253	45
COc1ccc(C2=N[C@@H](c3ccc(Cl)cc3)[C@@H](c3ccc(Cl)cc3)N2C(=O)N2CCNC(=O)C2)c(OC(C)C)c1 [Nutlin-3] + CN(C)S(=O)(=O)c1ccc2c(c1)/C(=C/c1cc3c([nH]1)CCCC3)C(=O)N2 [SU6656] (first compound 0.1 µM, partner dose 0.4 µM)	216	55	160	45.2	182	50.9	62.5	74.4	79.7	80.7
Cn1cnc2c(F)c(Nc3ccc(Br)cc3Cl)c(C(=O)NOCCO)cc21 [selumetinib] + COc1ccc(-c2ccc3c(N4CCOCC4)nc(N4C[C@@H](C)O[C@@H](C)C4)nc3n2)cc1CO [KU0063794] (first compound 0.015 µM, partner dose 0.02 µM)	121	96.2	36.5	91.8	152	98.3	202	32.8	140	341
CCN(CC)CCNC(=O)c1c(C)[nH]c(/C=C2\C(=O)Nc3ccc(F)cc32)c1C [sunitinib] + COc1cc(N2CCC(N3CCN(C)CC3)CC2)ccc1Nc1ncc(Cl)c(Nc2ccccc2S(=O)(=O)C(C)C)n1 [NVP-TAE684] (first compound 0.4 µM, partner dose 0.08 µM)	106	124	38.6	48.3	208	61.8	19.6	85.3	180	155
NC1(c2ccc(-c3nc4ccn5c(=O)[nH]nc5c4cc3-c3ccccc3)cc2)CCC1 + Oc1cc(-c2nc(-c3ccccc3)[nH]c2-c2ccncc2)ccc1Cl [L779450] (first compound 0.4 µM, partner dose 0.2 µM)	20.2	37.2	33	157	191	90	28	65.2	271	161
CC1(C)CCC(c2ccc(Cl)cc2)=C(CN2CCN(c3ccc(C(=O)NS(=O)(=O)c4ccc(N[C@H](CCN5CCOCC5)CSc5ccccc5)c(S(=O)(=O)C(F)(F)F)c4)cc3)CC2)C1 + Cc1cc(N2CCOCC2)cc2[nH]c(-c3c(NC[C@@H](O)c4cccc(Cl)c4)cc[nH]c3=O)nc12 [BMS536924] (first compound 0.4 µM, partner dose 0.2 µM)	186	360	152	234	84.3	292	599	397	249	13.5
NC(=O)c1ccc(N(C(N)=O)c2c(F)cccc2F)nc1-c1ccc(F)cc1F + COC(=O)c1sccc1S(=O)(=O)Nc1ccc(Nc2ccccc2)cc1OC [GSK0660] (first compound 0.4 µM, partner dose 1 µM)	106	134	66.3	387	99.6	160	33.5	73.7	170	103
NC(=O)c1ccc(N(C(N)=O)c2c(F)cccc2F)nc1-c1ccc(F)cc1F + COc1ccc(COc2ccc(Cc3cnc(N)nc3N)cc2OC)cc1 [GW2580] (first compound 0.4 µM, partner dose 1 µM)	174	83.8	33.4	146	106	112	67.8	359	52.1	968
CCCCCCCCc1ccc(CCC(N)(CO)CO)cc1 [fingolimod] + C=CCn1c(=O)c2cnc(Nc3ccc(N4CCN(C)CC4)cc3)nc2n1-c1cccc(C(C)(C)O)n1 [MK1775] (first compound 2 µM, partner dose 0.02 µM)	99.9	15.9	88.8	54.9	62.7	71.4	45.9	117	36.2	146
NC1(c2ccc(-c3nc4ccn5c(=O)[nH]nc5c4cc3-c3ccccc3)cc2)CCC1 + COC(=O)c1sccc1S(=O)(=O)Nc1ccc(Nc2ccccc2)cc1OC [GSK0660] (first compound 0.4 µM, partner dose 1 µM)	171	81.1	41.7	116	64.6	323	66.2	83.8	157	121

Limited to cleaved PARP positive nuclei fraction (UACC257) [%] (two entries from above):
Compound	cleaved PARP positive nuclei fraction (UACC257) [%]
Cn1sc(=O)n(Cc2ccccc2)c1=O + c1cc(-c2cnn3cc(-c4ccc(OCCN5CCCCC5)cc4)cnc23)ccn1 [Dorsomorphin] (first compound 0.4 µM, partner dose 0.4 µM)	62.1
NC1(c2ccc(-c3nc4ccn5c(=O)[nH]nc5c4cc3-c3ccccc3)cc2)CCC1 + COC(=O)c1sccc1S(=O)(=O)Nc1ccc(Nc2ccccc2)cc1OC [GSK0660] (first compound 0.4 µM, partner dose 1 µM)	157
